Tests used:
Type in all cases: cell-based
[1] = system: MDA-MB-231; assay: Cell growth, sulforhodamine B; conditions: Homo sapiens, MDA-MB-231, 72 h, read-out: IC50 growth inhibition
[2] = system: ZR-75-1; assay: Cell growth, sulforhodamine B; conditions: Homo sapiens, ZR-75-1, 72 h, read-out: IC50 growth inhibition
[3] = system: HCT-116; assay: Cell growth, sulforhodamine B; conditions: Homo sapiens, HCT-116, 72 h, read-out: IC50 growth inhibition
[4] = system: panel of cell lines representing a range of tumour types; assay: Cell growth, SRB assay, whole panel; conditions: 72 h, read-out: IC50 values, range over all cell lines tested
[5] = system: LNCaP; assay: Cell growth, sulforhodamine B; conditions: Homo sapiens, 72 h, read-out: IC50 growth inhibition
[6] = system: T47D; assay: Cell growth, sulforhodamine B; conditions: Homo sapiens, 72 h, read-out: IC50 growth inhibition
[7] = system: U2OS; assay: Cell growth, sulforhodamine B; conditions: Homo sapiens, 72 h, read-out: IC50 growth inhibition
[8] = system: A549; assay: Cell growth, sulforhodamine B; conditions: Homo sapiens, A549, 72 h, read-out: IC50 growth inhibition
[9] = system: BT20; assay: Cell growth, sulforhodamine B; conditions: Homo sapiens, BT-20, 72 h, read-out: IC50 growth inhibition
[10] = system: MCF-7; assay: Cell growth, sulforhodamine B; conditions: Homo sapiens, MCF7, 72 h, read-out: IC50 growth inhibition
[11] = system: MCF-10A; assay: Cell growth, sulforhodamine B; conditions: Homo sapiens, 72 h, read-out: IC50 growth inhibition
[12] = system: HepG2; assay: Cell growth, sulforhodamine B; conditions: Homo sapiens, HepG2, 72 h, read-out: IC50 growth inhibition
[13] = system: HCT-116 (p53-/-); assay: Cell growth, sulforhodamine B; conditions: Homo sapiens, HCT-116, 72 h, read-out: IC50 growth inhibition
[14] = system: NCI-460; assay: Cell growth, sulforhodamine B; conditions: NCI-460, 72 h, read-out: IC50 growth inhibition
[15] = system: BT474; assay: Cell growth, sulforhodamine B; conditions: Homo sapiens, BT-474, 72 h, read-out: IC50 growth inhibition
[16] = system: COLO-205; assay: Cell growth, sulforhodamine B; conditions: Homo sapiens, COLO 205, 72 h, read-out: IC50 growth inhibition
[17] = system: HMEC; assay: Cell growth, sulforhodamine B; conditions: Homo sapiens, 72 h, read-out: IC50 growth inhibition
[18] = system: PC3; assay: Cell growth, sulforhodamine B; conditions: Homo sapiens, PC-3, 72 h, read-out: IC50 growth inhibition

`CC[C@H](CO)Nc1nc(NCc2ccccc2)c2ncn(C(C)C)c2n1` [Roscovitine, roscovitine, reference compound] was tested, and the IC50 [1] was 18 µM, the IC50 [2] was 33.5 µM and the IC50 [3] was 17.5 µM. It also gave an IC50 [4] of 8 to 33.5 µM, an IC50 [5] of 8.4 µM and an IC50 [6] of 25 µM. The IC50 [7] was 10.5 µM, the IC50 [8] was 17 µM and the IC50 [9] was 32.5 µM. It also gave an IC50 [10] of 13 µM, an IC50 [11] of 12.5 µM and an IC50 [12] of 12.3 µM. It also gave an IC50 [13] of 8 µM, an IC50 [14] of 9.5 µM and an IC50 [15] of 30.5 µM. For the same compound, the IC50 [16] was 8 µM, the IC50 [17] was 20.5 µM and the IC50 [18] was 10.8 µM.
